Experimental data from article PMC11789580.
These are yes or no findings as the source states them, for the method shown. In cells and extracts the contact can be indirect. Tags and fused reporters may be left off the sequences shown.

Experiments:
RPOTp-FLAG (Arabidopsis) = target: T1, RPOTp-FLAG (Arabidopsis) (UniProt O24600); experiment: co-IP; RPOTp-FLAG and HA-tagged proteins co-infiltrated into Nicotiana benthamiana leaves; lysate on anti-FLAG M2 magnetic beads 2 h at 4 °C, eluted with 3xFLAG peptide; blots with anti-FLAG and anti-HA
T1 sequence: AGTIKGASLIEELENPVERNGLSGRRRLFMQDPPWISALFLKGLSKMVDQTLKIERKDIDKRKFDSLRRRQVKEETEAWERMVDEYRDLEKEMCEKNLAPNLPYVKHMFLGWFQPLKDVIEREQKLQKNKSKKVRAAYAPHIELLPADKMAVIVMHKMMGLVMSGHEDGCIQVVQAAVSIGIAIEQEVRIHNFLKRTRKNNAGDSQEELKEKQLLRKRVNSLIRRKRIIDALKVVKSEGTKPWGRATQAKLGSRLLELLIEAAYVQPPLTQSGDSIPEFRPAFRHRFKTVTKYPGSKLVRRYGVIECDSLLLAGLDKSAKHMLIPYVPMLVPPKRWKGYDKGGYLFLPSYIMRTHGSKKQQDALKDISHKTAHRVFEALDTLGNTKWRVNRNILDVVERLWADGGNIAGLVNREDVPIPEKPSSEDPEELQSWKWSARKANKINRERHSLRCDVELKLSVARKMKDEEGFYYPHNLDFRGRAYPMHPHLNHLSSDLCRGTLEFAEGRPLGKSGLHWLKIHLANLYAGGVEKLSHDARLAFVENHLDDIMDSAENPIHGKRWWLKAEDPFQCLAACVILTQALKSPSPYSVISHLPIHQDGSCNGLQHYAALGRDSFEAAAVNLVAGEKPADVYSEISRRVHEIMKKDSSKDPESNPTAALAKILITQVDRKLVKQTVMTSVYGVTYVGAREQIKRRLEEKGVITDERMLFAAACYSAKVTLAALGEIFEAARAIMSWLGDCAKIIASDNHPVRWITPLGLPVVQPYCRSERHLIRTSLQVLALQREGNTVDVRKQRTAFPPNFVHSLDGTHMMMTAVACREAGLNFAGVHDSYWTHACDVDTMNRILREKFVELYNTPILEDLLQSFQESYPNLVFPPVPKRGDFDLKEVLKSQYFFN

RPOTp-nLUC (Arabidopsis) = target: T2, RPOTp-nLUC (Arabidopsis) (UniProt O24600); experiment: split reporter; firefly luciferase complementation imaging (LCI): nLUC and cLUC fusions co-infiltrated into 4-week-old Nicotiana benthamiana leaves, 3 days, 1 mM D-luciferin, CCD camera
T2 sequence: T1 sequence

Row | binding (RPOTp-FLAG (Arabidopsis)) | binding (RPOTp-nLUC (Arabidopsis)) | Substance
1 | no binding |  | OZ1-HA (Arabidopsis)
2 |  | no binding | OTP82 (Arabidopsis)
3 |  | no binding | CRR4 (Arabidopsis)
